These are literature values, as cited in patent US20190115105A1, “TANDEM DUPLICATOR PHENOTYPE (TDP) AS A DISTINCT GENOMIC CONFIGURATION IN CANCER AND USE THEREOF” (The Jackson Laboratory, priority 2016, published 2019).

The series has as its system MCF-7. Particulars: MCF-7, ER/PR+, TDP, TDP Score 0.385; GDSC data base; cited from earlier work.

As for `N.N.[Cl][Pt][Cl]` [Cisplatin, cisplatin], the “IC50 Ln (μM)” value is on record as 2.72 Ln (μM).
